The nature of this assay: qHTS Assay for Lipid Storage Modulators in Drosophila S3 Cells.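 For cell number change: cells counted by Cell Tracker Red CMTPX staining in the red channel.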 The following applies: BODIPY lipid droplet fluorescence, 18-24 h; for cell number change: measured here: cell count max response, cells fed with added oleic acid. Summed up: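 Drosophila S3 cells loaded with oleic acid (400 uM, as added) and compounds at several concentrations; lipid droplets imaged by 488-nm laser-scanning cytometry, 500–530 nm intensity and object ratio to cell channel. Percent activity normalized to 20 uM Triacsin C.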
Background: In qHTS, concentration-response curves come from the screen itself.

Setting [1] is: measured here: cell number channel AC50, cells fed with added oleic acid.
The mark [2] stands for this setting: measured here: lipid fluorescence (Fed channel) AC50, cells fed with added oleic acid.

This is one part of the list. The main result of the screen is listed elsewhere. These columns were measured beside it and carry no call. Compounds called inactive in the main read-out are mostly missing here. The note in brackets gives the kind of curve behind each potency; many fits are weak.

One may read the AC50 as the midpoint of the concentration-response curve, whichever way the signal moves. Read a low AC50 as activity at low concentration. `O=C(Nc1ccc2[nH]c(=O)[nH]c2c1)c1ccc(Cl)c(Cl)c1`: the cell number change is -4.86%. Besides, the concentration at half-maximal activity (AC50) under setting [1] is 0.517 µM [rising, full curve, poor fit].
`Fc1ccccc1CNCCC(Cc1ccccc1)c1ccc2c(c1)OCO2` (stereo not drawn): the cell number change is -61.4%. The half-maximal activity concentration (AC50) under setting [1] was 20.6 µM [falling, single point]. In addition, the AC50 under setting [2] was 16.4 µM [falling, partial curve].
Consider `C=CCSc1nccc(-c2nn(-c3ccc(C)cc3)ccc2=O)n1`, for which the cell number change is -27.9%.
Consider `NS(=O)(=O)c1ccc(N/N=C/c2ccccc2Br)cc1`, for which the cell number change was found to be 13.3%. For the same compound, under setting [2], the AC50 is 6.51 µM [rising, partial curve, poor fit].
For `COc1cccc(C2/C(=C(/O)c3ccc4c(c3)CC(C)O4)C(=O)C(=O)N2CCCn2ccnc2)c1` (stereo not drawn), the cell number change was determined as 10.7%.
For `O=S(=O)(Nc1ccccc1F)c1ccc(Cl)nc1`, the cell number change amounted to 16.6%. Moreover, the AC50 under setting [2] was 1.84 µM [rising, full curve].
With `O=C(NC1CCCC1)C(c1ccco1)N(C(=O)c1csnn1)c1ccccc1` (stereo not drawn), the cell number change is -21.9%. The AC50 under setting [2] is 0.206 µM [rising, single point].
As for `CC(=O)c1ccc(OCCCC(=O)Nc2ccc3c(c2)OCCO3)cc1`, the cell number change was -14.2%. The AC50 under setting [2] is 6.51 µM [falling, full curve, poor fit].
Regarding `CC(=O)c1ccc(S(=O)(=O)N2CCN(C(=O)CSc3ccc(C)c(C)c3)CC2)cc1`, the cell number change was found to be 4.62%.
With `COc1ccc(C(Nc2ccccn2)c2oc(CO)cc(=O)c2O)cc1` (stereo not drawn), the cell number change was -0.609%. Moreover, the half-maximal activity concentration (AC50) under setting [1] is 6.51 µM [falling, single point]. In addition, the AC50 under setting [2] was 6.51 µM [falling, single point].
Consider `OC(c1ccc(F)cc1)(C1CCCCC1)C(CN1CCOCC1)c1ccccc1` (stereo not drawn), for which the cell number change is 3.28%. For the same compound, the AC50 under setting [2] is 29.1 µM [rising, single point].
For `CC1(C)CC(NC(=S)Nc2ccc(S(N)(=O)=O)cc2)CC(C)(C)N1`, the cell number change amounted to 10%.
For the compound `Cc1ccc(S(=O)(=O)n2cnc3cc([N+](=O)[O-])ccc32)c(C)c1`, the AC50 under setting [2] is 2.31 µM [rising, partial curve].
In the case of `CCN1CCN(C(=O)c2c(-c3ccccc3)noc2C)CC1`, the cell number change stood at 8.33%.
Turning to `COc1ccc(C)cc1NC(=O)n1ncc2cc(Cl)ccc21`, the cell number change is -17.7%.
For the compound `O=C(NC1CCCC1)c1nc2c(nnn2Cc2cccc(Cl)c2)c(=O)[nH]1`, the cell number change was 33.5%.
Consider `CN1CC(=O)N=C1N`, for which the cell number change stood at 0.872%. In addition, under setting [2], the half-maximal activity concentration (AC50) is 29.1 µM [falling, single point].
Consider `CC(CC(C)C(=O)N1CCOCCN(C(=O)C(C)CC(C)C(=O)O)CCOCC1)C(=O)O` (stereo not drawn), for which the cell number change is -1.75%. The AC50 under setting [1] was 0.146 µM [rising, full curve, poor fit]. In addition, the half-maximal activity concentration (AC50) under setting [2] is 20.6 µM [falling, partial curve].
For the compound `CCN(CC)S(=O)(=O)c1ccc(N2CCCC2)c(NC(=O)Cc2ccc(OC)cc2)c1`, the cell number change is 7.09%. In addition, the AC50 under setting [1] is 2.06 µM [rising, partial curve]. Further, the AC50 under setting [2] was 0.58 µM [rising, single point].
For `Cc1cc(NC(=O)CN2CCC(n3nnc4cc(C(F)(F)F)ccc43)CC2)no1`, the cell number change is -17.8%. Moreover, the concentration at half-maximal activity (AC50) under setting [2] was 13 µM [rising, single point].
Take `CCOC(=O)Cc1csc(NC(=O)NC2(C(F)(F)F)Oc3ccccc3O2)n1`: the cell number change was -30.8%. Moreover, under setting [1], the AC50 was 32.6 µM [falling, single point].
Regarding `CCc1ccc(-c2cc3c(=O)n(CC(=O)NCCCN4CCN(CC)CC4)nc(C)n3n2)cc1`, the cell number change was 12.8%. The AC50 under setting [2] is 6.51 µM [rising, partial curve, poor fit].
Regarding `O=C(Nc1ccccc1)NC1(C(=O)NCc2ccc3c(c2)OCO3)CCCCC1`, the cell number change was determined as 11.4%. Also, the AC50 under setting [1] is 0.164 µM [falling, full curve, poor fit].
`CN(C)c1cccc2c(/C=N/O)ccc(N(C)C)c12`: the cell number change is -38%. The half-maximal activity concentration (AC50) under setting [1] is 29.1 µM [falling, single point].
Consider `Clc1cc2c(c(CSc3nc4ccccc4n4cccc34)c1)OCOC2`, for which the cell number change is -56.5%. In addition, the AC50 under setting [1] is 32.6 µM [falling, partial curve, poor fit]. Moreover, the AC50 under setting [2] was 0.411 µM [rising, full curve].
Turning to `CC(OC(=O)c1cc(Br)ccc1O)C(=O)Nc1ccc(S(=O)(=O)N2CCCC2)cc1` (stereo not drawn), the cell number change is -33.8%. For the same compound, under setting [1], the AC50 was 13 µM [falling, partial curve].
On to `CC(=O)NCc1nc2ccccc2n1Cc1ccccc1C`, for which the AC50 under setting [1] was 6.51 µM [falling, single point].
In the case of `O=c1[nH]c(SCc2nc3ccccc3n2Cc2ccccc2)nc2ccccc12`, the cell number change was -132%. Moreover, the AC50 under setting [1] was 5.17 µM [falling, single point].
As for `NCCN1CCN(CCN)CC1`, the cell number change is -109%. The concentration at half-maximal activity (AC50) under setting [1] is 23.1 µM [falling, single point]. In addition, under setting [2], the concentration at half-maximal activity (AC50) was 11.6 µM [falling, partial curve].
Turning to `O=C(OCCN1C(=O)c2cccc3c(N4CCOCC4)ccc(c23)C1=O)c1cccc(Cl)c1`, the cell number change is -48%. Further, under setting [1], the AC50 is 23.1 µM [falling, single point].
On to `COc1ccccc1NC(=O)Cn1c(=O)n(-c2ccccc2)c(=O)c2oc3ccccc3c21`, for which the cell number change was determined as 16.6%.
`CNC(=O)n1ccc(C(=O)N2CCCCC2)n1`: the cell number change is -11.2%. In addition, under setting [2], the concentration at half-maximal activity (AC50) was 1.16 µM [falling, partial curve].
Regarding `COc1ccc2oc(C(=O)N(C)Cc3ccc4c(c3)OCCO4)c(C)c2c1`, the cell number change stood at 27.4%. Also, the concentration at half-maximal activity (AC50) under setting [2] was 20.6 µM [rising, single point].
`O=C(O)c1ccc2c(=O)n3c(nc2c1)/C(=C/c1ccccc1OC(F)F)CC3`: the cell number change was -35.5%. Moreover, the AC50 under setting [1] is 1.16 µM [falling, full curve, poor fit].
Take `Cc1ccccc1NC(=S)NCc1ccc2c(c1)OCO2`: the cell number change was -8.58%. The AC50 under setting [2] is 16.4 µM [falling, single point].
Consider `Cc1ccc(NC(=O)C2COc3ccccc3O2)cc1S(=O)(=O)N1CCCCC1` (stereo not drawn), for which the cell number change was -7.68%. The half-maximal activity concentration (AC50) under setting [2] was 0.164 µM [falling, full curve, poor fit].
For `COC(=O)[C@H](Cc1ccccc1)NC(=O)NCCc1ccccc1F`, the cell number change came to 22.7%.
As for `CCC1=NC(c2ccccc2Cl)N(O)C1(C)C` (stereo not drawn), the cell number change was determined as 3.97%. Under setting [2], the AC50 was 25.9 µM [falling, single point].
As to `CCN(CC)CCCNc1oc(-c2cccc(Cl)c2)nc1C#N`, the cell number change was 31.7%. The concentration at half-maximal activity (AC50) under setting [1] is 23.1 µM [rising, single point].
For `Cc1cc(Br)c(S(=O)(=O)n2nnc3ccccc32)cc1C`, the cell number change was -63.3%. Besides, under setting [1], the half-maximal activity concentration (AC50) was 29.1 µM [falling, single point]. Moreover, under setting [2], the AC50 is 29.1 µM [falling, single point].
In the case of `CCN(CC)S(=O)(=O)c1cccc(C(=O)OCc2cc(=O)n3nc(C)sc3n2)c1`, the cell number change is -2.06%. Further, under setting [2], the half-maximal activity concentration (AC50) is 2.91 µM [falling, full curve, poor fit].
In the case of `N#CCSc1nc2ccccc2c2nc3ccccc3n12`, the AC50 under setting [1] was 6.51 µM [rising, single point].
Take `CCn1cc(Br)c(C(=O)Nc2sc3c(c2C(N)=O)CCCC3)n1`: the concentration at half-maximal activity (AC50) under setting [2] is 6.51 µM [falling, single point].
With `COc1cccc(NC(=O)COC(=O)Cc2ccc(Cl)cc2)c1`, the half-maximal activity concentration (AC50) under setting [2] was 0.651 µM [falling, partial curve, poor fit].
Take `CC1CCCN(C(=O)CN2C(=O)CSc3ccc(S(=O)(=O)N4CCOCC4)cc32)C1` (stereo not drawn): the cell number change was -2.47%. Moreover, the AC50 under setting [2] was 6.51 µM [falling, single point].
As for `COc1ccc(C2(C)NC(=O)N(CC(=O)Nc3ccc4c(c3)CCC4)C2=O)cc1OC` (stereo not drawn), the cell number change came to 25.9%. Also, the concentration at half-maximal activity (AC50) under setting [2] is 29.1 µM [rising, partial curve, poor fit].
`CCn1cc(S(=O)(=O)c2ccc(C)cc2)[nH]c1=O`: the cell number change was -31.6%. In addition, the concentration at half-maximal activity (AC50) under setting [1] was 29.1 µM [falling, single point].
Take `COc1ccc(CCNC(=O)COc2cccc(-n3cnnn3)c2)cc1`: the cell number change was 3.85%.
As to `COc1ccc(-c2oc3ncn4nc(Cc5ccccc5)nc4c3c2-c2ccc(OC)cc2)cc1`, the cell number change came to 3.78%. The concentration at half-maximal activity (AC50) under setting [2] was 1.46 µM [rising, partial curve].
For the compound `CCN1CCN(c2ccc(S(=O)(=O)N3CCCCC3)cc2NC(=O)/C=C/c2ccc(OC)c(OC)c2)CC1`, under setting [2], the AC50 is 0.184 µM [rising, full curve, poor fit].
With `Cc1ccnc(-n2c(C)cc(/C=N/NC(=O)COc3cccc4cccnc34)c2C)c1`, the AC50 under setting [1] was 0.411 µM [rising, full curve] and the AC50 under setting [2] was 0.731 µM [rising, partial curve, poor fit].
For `COc1cc(/C=C(\C#N)c2nc3ccccc3[nH]2)cc(Br)c1OCc1ccccc1`, the cell number change is -6.01%. For the same compound, under setting [2], the half-maximal activity concentration (AC50) was 1.3 µM [rising, partial curve].
As to `Cc1ccc(CNC(=O)CN2c3cccc4cccc(c34)S2(=O)=O)cc1`, the cell number change was -15.3%. In addition, under setting [2], the concentration at half-maximal activity (AC50) was 7.31 µM [falling, partial curve].
Consider `Cc1ccc(CCC(=O)Nc2ccccc2C(=O)O)o1`, for which the cell number change was 0.885%. In addition, the AC50 under setting [2] is 29.1 µM [falling, single point].
`O=S(=O)(c1cccc2nsnc12)N1CCN(C/C=C\c2ccccc2)CC1`: the half-maximal activity concentration (AC50) is, setting by setting: under setting [1], 2.06 µM [rising, partial curve, poor fit]; under setting [2], 6.51 µM [rising, single point].
On to `CCN(CC(=O)Nc1ccc(NC(C)=O)cc1)C(=O)C(c1ccccc1)c1ccccc1`, for which the cell number change stood at 3.99%. Further, the half-maximal activity concentration (AC50) under setting [2] is 0.00461 µM [rising, full curve, poor fit].
Consider `C=CCNC(=O)/C(=C\C=C\c1ccccc1)NC(=O)c1ccccc1Cl`, for which the cell number change is 20.9%. Moreover, under setting [2], the AC50 was 2.59 µM [rising, partial curve].
Take `C=CCNC(=O)Nc1ccc(Br)cc1Cl`: the cell number change was -18%. For the same compound, under setting [2], the AC50 is 0.58 µM [falling, partial curve, poor fit].
As to `C=C1CCN(Cc2ccccc2)S(=O)(=O)c2ccccc21`, the cell number change amounted to 20.6%. Moreover, the half-maximal activity concentration (AC50) under setting [2] was 5.8 µM [rising, partial curve].
On to `CO/N=C(\Cn1ncc(N2CCCC2)c(Cl)c1=O)c1ccc(Cl)cc1`, for which the cell number change is -11.4%.
As for `Cc1cc2nc(CCN(C(=S)NCC3CCCO3)C3CCCC3)[nH]c2cc1C` (stereo not drawn), the cell number change stood at 16.9%. Besides, under setting [1], the AC50 is 0.82 µM [rising, single point]. In addition, the AC50 under setting [2] was 1.16 µM [rising, single point].

These data come from PubChem BioAssay AID2685 (National Center for Advancing Translational Sciences (NCATS), 2010).
